Measurements reported in PubChem BioAssay AID1259424 (University of Nebraska Medical Center, 2018).
Screen: 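Seek colon cancer survival genes behaving like KSR1, using a six-gene signature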 (primary screen). System: human HCT116 colon cancer cells. Knock-down reagent: siRNA pool against human genes, 50 nM. Measurement: 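Log2 levels of six mRNAs (branched-DNA multiplex), adjusted by two reference genes and the non-targeting median, then scored against the average KSR1 knockdown pattern as Pearson r and euclidean distance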. Reading the numbers: mean correlation with KSR1 profile: higher = expression change more like KSR1 knockdown; mean distance from KSR1 profile: higher = expression change less like KSR1 knockdown.
In all, the deposit lists about 14,000 reagents; this is a part drawn at random. 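Higher correlation or smaller distance means closer resemblance to KSR1 loss; control wells, including KSR1 knockdowns, recur on many plates.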 Reagents against one gene are numbered here. Not all columns of the deposit are shown. Not stated in the record: the time to read-out.

Knock-down of PCTP (GeneID 58488) gave: mean correlation with KSR1 profile -0.458; mean distance from KSR1 profile 3.24.
Knock-down of NXF1 (GeneID 10482) gave: mean correlation with KSR1 profile 0.438; mean distance from KSR1 profile 3.96.
Against TYMP (GeneID 1890), the entry reads mean correlation with KSR1 profile -0.887; mean distance from KSR1 profile 1.87.
For PFAS (GeneID 5198) the deposit lists mean correlation with KSR1 profile -0.799; mean distance from KSR1 profile 2.1.
For OAT (GeneID 4942), the entry reads mean correlation with KSR1 profile -0.231; mean distance from KSR1 profile 2.73.
Knock-down of TET2 (GeneID 54790) #1 gave: mean correlation with KSR1 profile -0.689; mean distance from KSR1 profile 2.79.
Silencing of TET2 (GeneID 54790) #2 came out at: mean correlation with KSR1 profile -0.325; mean distance from KSR1 profile 1.82.
After knock-down of DYNC2LI1 (GeneID 51626) the results were mean correlation with KSR1 profile -0.482; mean distance from KSR1 profile 3.17.
Against SERPINA10 (GeneID 51156), the values are mean correlation with KSR1 profile 0.23; mean distance from KSR1 profile 4.04.
Knock-down of SEMA4F (GeneID 10505) came out at: mean correlation with KSR1 profile -0.503; mean distance from KSR1 profile 1.29.
FRMPD4 (GeneID 9758) showed mean correlation with KSR1 profile -0.698; mean distance from KSR1 profile 2.29.
After knock-down of IST1 (GeneID 9798) the results were mean correlation with KSR1 profile -0.316; mean distance from KSR1 profile 2.23.
MYL2 (GeneID 4633) showed mean correlation with KSR1 profile -0.715; mean distance from KSR1 profile 1.71.
For KCNE5 (GeneID 23630), the values are mean correlation with KSR1 profile -0.607; mean distance from KSR1 profile 2.
WNT7B (GeneID 7477) showed mean correlation with KSR1 profile -0.184; mean distance from KSR1 profile 2.65.
ZBBX (GeneID 79740) gave mean correlation with KSR1 profile 0.0292; mean distance from KSR1 profile 2.84.
FKBP2 (GeneID 2286) scored mean correlation with KSR1 profile 0.154; mean distance from KSR1 profile 1.58.
After knock-down of SLC11A2 (GeneID 4891) the results were mean correlation with KSR1 profile 0.0877; mean distance from KSR1 profile 1.86.
SPATA3 (GeneID 130560) showed mean correlation with KSR1 profile 0.366; mean distance from KSR1 profile 1.34.
For ATL2 (GeneID 64225), the entry reads mean correlation with KSR1 profile -0.263; mean distance from KSR1 profile 2.47.
With knock-down of INE1 (GeneID 8552) the results were mean correlation with KSR1 profile -0.202; mean distance from KSR1 profile 1.74.
Silencing of VOPP1 (GeneID 81552) gave: mean correlation with KSR1 profile 0.241; mean distance from KSR1 profile 2.97.
With knock-down of NCAPD2 (GeneID 9918), the screen gave mean correlation with KSR1 profile -0.735; mean distance from KSR1 profile 1.63.
HTR3C (GeneID 170572) showed mean correlation with KSR1 profile 0.346; mean distance from KSR1 profile 1.33.
After knock-down of NR1D1 (GeneID 9572), the record shows mean correlation with KSR1 profile 0.701; mean distance from KSR1 profile 0.952.
Against CDK15 (GeneID 65061), the entry reads mean correlation with KSR1 profile -0.289; mean distance from KSR1 profile 3.87.
Against MIR600HG (GeneID 81571), the values are mean correlation with KSR1 profile -0.0484; mean distance from KSR1 profile 3.27.
RET (GeneID 5979) scored mean correlation with KSR1 profile 0.37; mean distance from KSR1 profile 3.17.

3 entries from above, limited to “mean distance from KSR1 profile”.
OAT (GeneID 4942): 2.73
TET2 (GeneID 54790) #1: 2.79
TET2 (GeneID 54790) #2: 1.82
